From patent US20250275924A1, “Anticholinergic Agents and Muscarinic Agonists for the Treatment of Demodex Related Conditions” (ATTILLAPS HOLDINGS INC., priority 2022, published 2025) come the findings set out here.

The assay concerns Demodex mites. The assay is described as follows: in vitro assay of Demodex mite paralysis and/or killing (survival time). The following applies: grouping of active agents in the summary; data in FIG. 1A-1E (not reproduced). Here is the method:
FIG. 1A-1E is a table summary of an in vitro assay of various agents on Demodex mites survival time and paralysis.
FIG. 1A-1E is a summary of various agents tested in an in vitro assay of Demodex mite paralysis and/or killing. The efficacy of various agents are evaluated in Demodex characterization and/or survival time experiments, including in terms of LT50 (time at which 50% of Demodex mites are killed) and/or associated time (in hours: min or total minutes). Certain active agents achieve LT50 of 12 hours or less.
In an embodiment, the active agent is characterized as having a LT50 of less than 12 hours, including as confirmed in an in-vitro Demodex assay, including as summarized in FIG. 1A-1E. In an embodiment, the active agent is characterized as having a paralytic activity, including as confirmed in an in-vitro Demodex assay, including as summarized in FIG. 1A-1E.

On to `CCN(CC)CCOC(=O)C1(C2CCCCC2)CCCCC1` [dicyclomine], for which the “kills Demodex mites” value was “kill Demodex mites”.
